According to publication PMC12462528, “Molecular basis of ParA ATPase activation by the CTPase ParB during bacterial chromosome segregation” (Nature Communications, 2025):
Substitutions are numbered along the chain they refer to. Names may count otherwise. These are yes or no findings as the source states them, for the method shown. Some entries that bind do so weakly or less than the wild type.

Experiments:
ParB-Q52A = biological target: T1, ParB-Q52A (Myxococcus xanthus DK1622, UniProt Q1CVJ4 1-296, Q52A); assay: BLI; ParB-Q52A (10 µM) loaded on closed parS DNA on the biosensor; ParA variants (5 µM) in solution with ATP (1 mM) and 500 mM KCl; both purified
T1 construct: ParB of Myxococcus xanthus DK1622, variant lacking CTPase activity; Closed clamps formed with CTP and parS DNA; also called CTP hydrolysis-deficient ParB variant; source: E. coli Rosetta(DE3)pLysS, purified (as wild-type ParB)
T1 sequence (looked up): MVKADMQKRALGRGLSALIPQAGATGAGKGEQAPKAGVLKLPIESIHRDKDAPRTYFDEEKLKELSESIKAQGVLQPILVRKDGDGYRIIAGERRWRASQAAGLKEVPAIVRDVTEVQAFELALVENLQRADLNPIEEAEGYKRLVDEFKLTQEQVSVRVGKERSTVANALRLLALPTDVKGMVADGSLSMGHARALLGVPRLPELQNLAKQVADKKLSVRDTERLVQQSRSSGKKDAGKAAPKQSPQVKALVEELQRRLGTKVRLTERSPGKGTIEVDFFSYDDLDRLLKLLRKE

[1] = biological target: T2, ParA-D60A (Myxococcus xanthus DK1622) (UniProt Q1CVJ3); assay: HDX-MS; 50 µM ParA-D60A with 1 mM ATP and 1 mM CTP, with or without 100 µM ParB-Q52A pre-closed with 2.5 µM parS stem-loop and/or 1 mg/mL salmon sperm DNA; 25 °C (Dataset 3); both purified
T2 sequence: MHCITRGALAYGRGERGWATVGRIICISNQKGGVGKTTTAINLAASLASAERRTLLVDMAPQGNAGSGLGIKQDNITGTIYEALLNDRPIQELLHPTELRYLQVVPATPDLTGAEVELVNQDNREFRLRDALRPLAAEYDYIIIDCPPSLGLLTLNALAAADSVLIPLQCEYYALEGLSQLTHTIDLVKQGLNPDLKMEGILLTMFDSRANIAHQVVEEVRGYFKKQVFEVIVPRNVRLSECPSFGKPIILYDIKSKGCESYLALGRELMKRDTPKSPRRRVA

[2] = biological target: T2, ParA-D60A (Myxococcus xanthus DK1622); assay: HDX-MS; 50 µM ParA or ParA-D60A with 1 mM ATP, with or without 1 mM ParB_(1-20) and/or 1 mg/mL salmon sperm DNA; 25 °C (Datasets 1 and 2); both purified
[3] = biological target: T3, ParBΔ21 (Myxococcus xanthus DK1622) (UniProt Q1CVJ4); assay: BLI; double-biotinylated 234-bp parS DNA on streptavidin biosensor, loaded with ParB or its derivatives (10 µM) and 1 mM CTPγS; ParA-R238E variants in solution with 1 mM ATP; 25 mM HEPES/KOH pH 7.6, 100 mM KCl, 10 mM MgSO4, 1 mM DTT; apparent KD; both purified
T3 sequence: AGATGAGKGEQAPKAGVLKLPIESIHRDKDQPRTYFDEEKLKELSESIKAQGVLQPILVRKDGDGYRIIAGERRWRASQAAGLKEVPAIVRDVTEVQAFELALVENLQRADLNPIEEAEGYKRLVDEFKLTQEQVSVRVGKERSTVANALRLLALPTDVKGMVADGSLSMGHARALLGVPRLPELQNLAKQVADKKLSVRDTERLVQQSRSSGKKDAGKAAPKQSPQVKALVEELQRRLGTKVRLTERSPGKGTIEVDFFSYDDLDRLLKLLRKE

B1: ParA-E82R (protein, UniProt Q1CVJ3 1-283)
chain: T2 sequence with A60D, E82R
- binding (ParB-Q52A): binds

B2: ParB-Q52A (protein, UniProt Q1CVJ4 1-296)
chain: T1 sequence (looked up)
- binding [1]: binds weakly

B3: ParB_(1-20) peptide (peptide, UniProt Q1CVJ4 1-20, looked up)
peptide: MVKADMQKRALGRGLSALIP
notes: also called N-terminal peptide of ParB; source: synthetic peptide
- binding [2]: binds weakly

B4: ParA-R238E (natural protein, Myxococcus xanthus DK1622, UniProt Q1CVJ3 1-283, looked up)
chain: T2 sequence with A60D, R238E
notes: ParA of Myxococcus xanthus DK1622, translation product of ORF MXAN_7477; Purified as His6-ParA; no tag cleavage step is described; also called His6-ParA-R238E; source: E. coli Rosetta(DE3)pLysS, purified (HisTrap HP, HiTrap Q HP)
- binding [3]: no binding (tested: 10 µM)
